Source: PubChem BioAssay AID330 (DTP/NCI, 2004)
The list is a part of this screen's results and no random one: it gathers tests that were run many times, whatever their T/C, doses with no T/C, and many T/C values between a quarter and a half above the control. Further doses and runs are listed elsewhere. T/C is the treated group as % of the vehicle group. Some doses have a count of surviving animals in place of a T/C: the source holds a T/C of zero for them, seemingly a mark for toxic or unscored doses. Some survivor counts are full or nearly so, which does not show that the dose was tolerated: the source hardly ever lists a survival T/C far under the control, and the zero likely stands for such cases as well. Counts of survivors are from the toxicity check (mostly the fifth day) where no day follows; animals may have died later. Schedules are NCI's codes, read here as Q, the interval in days (D) or hours (H), X, the number of doses. Some doses were run more than once; the values are given in rising order. Where survival is the endpoint, this PubChem deposit counts one and a half times the control or more as active, and values a quarter to a half above the control carry no call in these data; other NCI protocols may use other cut-offs. Some T/C values carry the count of animals alive at the toxicity check (mostly the fifth day); where none is given, no animal had died by that day.

System: P388 leukemia ip, CD2F1 mice, survival T/C
Assay: NCI In Vivo Anticancer Drug Screen. Data for tumor model P388 Leukemia (intraperitoneal) in CD2F1 (CDF1) mice
Conditions: T/C endpoint: median survival time, higher T/C = longer survival
[1] = dose: 50.0 mg/kg/injection, schedule: Q01DX009 (ip), vehicle: other
[2] = dose: 50.0 mg/kg/injection, schedule: Q01DX009 (ip), vehicle: saline with Tween-80
[3] = dose: 200.0 mg/kg/injection, schedule: Q01DX009 (ip), vehicle: saline with Tween-80
[4] = dose: 200.0 mg/kg/injection, schedule: Q04DX003 (ip), vehicle: saline with Tween-80
[5] = dose: 400.0 mg/kg/injection, schedule: Q04DX003 (ip), vehicle: saline with Tween-80
[6] = dose: 200.0 mg/kg/injection, schedule: Q01DX005 (ip), vehicle: Klucel (hydroxypropylcellulose) (HPC)
[7] = dose: 200.0 mg/kg/injection, schedule: Q01DX009 (ip), vehicle: saline
[8] = dose: 50.0 mg/kg/injection, schedule: Q01DX009 (ip), vehicle: saline
[9] = dose: 240.0 mg/kg/injection, schedule: Q01DX005 (ip), vehicle: Klucel (hydroxypropylcellulose) (HPC)
[10] = dose: 100.0 mg/kg/injection, schedule: Q01DX009 (ip), vehicle: saline
[11] = dose: 25.0 mg/kg/injection, schedule: Q01DX009 (ip), vehicle: saline
[12] = dose: 25.0 mg/kg/injection, schedule: Q04DX003 (ip), vehicle: saline

In the case of `Oc1cc2c3c(c1)c1cc4c(cc1c[n+]3CC2)OCO4`, the T/C (dose: 3.13 mg/kg/injection, schedule: Q01DX009 (ip), vehicle: other) is reported as 133 % of control, the T/C (dose: 12.5 mg/kg/injection, schedule: Q01DX009 (ip), vehicle: water) is reported as 138 % of control and the T/C (dose: 25.0 mg/kg/injection, schedule: Q01DX009 (ip), vehicle: water) is reported as 144 % of control [5 of 6 alive]. For the same compound, the survivor count (dose: 40.0 mg/kg/injection, schedule: Q01DX005 (ip), vehicle: acid diluted with saline) was 4 of 6, the survivor count [1] was 2 of 6 and the survivor count (dose: 50.0 mg/kg/injection, schedule: Q01DX009 (ip), vehicle: water) was 2 of 6. For the same compound, the survivor count (dose: 100.0 mg/kg/injection, schedule: Q01DX009 (ip), vehicle: water) was 0 of 6 and the survivor count (dose: 200.0 mg/kg/injection, schedule: Q01DX009 (ip), vehicle: water) was 0 of 6.

With `N=C(N)SCc1c2ccccc2cc2ccccc12` the T/C [2] was 136 % of control, the T/C (dose: 100.0 mg/kg/injection, schedule: Q01DX009 (ip), vehicle: saline with Tween-80) was 136 % of control and the survivor count [3] was 6 of 6. The T/C [4] was 131 % of control and the T/C [5] was 127 % of control [5 of 6 alive].

In the case of `O=C(O)CCCCc1ccc(CCCCC(=O)O)cc1`, the survivor count (dose: 75.0 mg/kg/injection, schedule: Q04DX003 (ip), vehicle: Klucel (hydroxypropylcellulose) (HPC)) is reported as 6 of 6, the survivor count (dose: 150.0 mg/kg/injection, schedule: Q04DX003 (ip), vehicle: Klucel (hydroxypropylcellulose) (HPC)) is reported as 6 of 6 and the survivor count (dose: 300.0 mg/kg/injection, schedule: Q04DX003 (ip), vehicle: Klucel (hydroxypropylcellulose) (HPC)) is reported as 6 of 6.

For `Cc1ccc(C)c([N+](=O)[O-])c1C(=O)O`, the survivor count (dose: 400.0 mg/kg/injection, schedule: Q04DX003 (ip), vehicle: saline + alcohol) was 5 of 6.

For `COc1cc2c(c(OC)c1OC)-c1ccc(OC)c(=O)cc1[C@@H](N(C)C(C)=O)CC2`, the T/C (dose: 0.07 mg/kg/injection, schedule: Q01DX009 (ip), vehicle: Klucel (hydroxypropylcellulose) (HPC)) was 130 % of control, the T/C (dose: 0.15 mg/kg/injection, schedule: Q01DX009 (ip), vehicle: Klucel (hydroxypropylcellulose) (HPC)) was 140 % of control and the survivor count (dose: 0.62 mg/kg/injection, schedule: Q01DX009 (ip), vehicle: Klucel (hydroxypropylcellulose) (HPC)) was 6 of 6. The survivor count (dose: 1.25 mg/kg/injection, schedule: Q01DX009 (ip), vehicle: Klucel (hydroxypropylcellulose) (HPC)) was 4 of 6, the survivor count (dose: 2.5 mg/kg/injection, schedule: Q01DX009 (ip), vehicle: Klucel (hydroxypropylcellulose) (HPC)) was 1 of 6 and the survivor count (dose: 5.0 mg/kg/injection, schedule: Q01DX009 (ip), vehicle: Klucel (hydroxypropylcellulose) (HPC)) was 0 of 6.

`Cc1cc(NCCCCCCCNc2cc(C)nc3cc(N)ccc23)c2ccc(N)cc2n1` was tested, and the T/C (dose: 0.78 mg/kg/injection, schedule: Q01DX009 (ip), vehicle: other) was 147 % of control, the survivor count (dose: 25.0 mg/kg/injection, schedule: Q01DX009 (ip), vehicle: other) was 2 of 6 and 3 of 6 and the survivor count [1] was 0 of 6. The survivor count (dose: 100.0 mg/kg/injection, schedule: Q01DX009 (ip), vehicle: other) was 0 of 6.

With `O=C1C(c2ccccc2)=C(c2ccc(Br)cc2)C2(c3ccc(Br)cc3)CC12c1ccccc1` (stereo unspecified) the survivor count (dose: 200.0 mg/kg/injection, schedule: Q01DX005 (ip), vehicle: Klucel + Tween-80) was 6 of 6.

With `O=C1c2ccccc2C=c2c1nc1c(O)ccc3cccc2c31` the survivor count (dose: 100.0 mg/kg/injection, schedule: Q01DX005 (ip), vehicle: Klucel (hydroxypropylcellulose) (HPC)) was 4 of 6 and the survivor count [6] was 0 of 6.

With `O=[N+]([O-])c1ccc(Nc2ccc[n+]3c([O-])csc23)nc1` the survivor count [2] was 6 of 6 and the survivor count [7] was 6 of 6.

For `CC(=O)Nc1cc(Cl)cc2c1-c1ccc(Cl)cc1C2=O`, the survivor count [6] was 1 of 6.

In the case of `CC(=O)OCC1OC(n2ccc(N)nc2=O)C(OC(C)=O)C1OC(C)=O` (stereo unspecified), the T/C [8] is reported as 143 % of control.

With `Cc1cc[c]([Bi]([c]2ccc(C)cc2)[c]2ccc(C)cc2)cc1` the survivor count [9] was 6 of 6.

`[C-]#[N+]C1CCCCC1.[C-]#[N+]C1CCCCC1.[Ni].[S-]c1ccccc1.[S-]c1ccccc1` was tested, and the survivor count [4] was 4 of 6 and the survivor count [5] was 0 of 6.

With `O=C1C(Cl)=C(NCCCN(CCO)CCO)C(=O)c2ccccc21` the survivor count [10] was 3 of 6 and 4 of 6.

In the case of `Nc1nc(=S)c2[nH]c(N=Nc3ccc(S(=O)(=O)Nc4nccs4)cc3)nc2[nH]1`, the T/C (dose: 9.38 mg/kg/injection, schedule: Q01DX001 (ip), vehicle: Klucel (hydroxypropylcellulose) (HPC)) is reported as 140 % of control, the T/C (dose: 18.75 mg/kg/injection, schedule: Q01DX001 (ip), vehicle: Klucel (hydroxypropylcellulose) (HPC)) is reported as 133 % of control [5 of 6 alive] and the T/C (dose: 37.5 mg/kg/injection, schedule: Q01DX001 (ip), vehicle: Klucel (hydroxypropylcellulose) (HPC)) is reported as 133 % of control [5 of 6 alive]. The T/C (dose: 75.0 mg/kg/injection, schedule: Q01DX001 (ip), vehicle: Klucel (hydroxypropylcellulose) (HPC)) was 140 % of control and the survivor count (dose: 150.0 mg/kg/injection, schedule: Q01DX001 (ip), vehicle: Klucel (hydroxypropylcellulose) (HPC)) was 2 of 6.

With `CSC(=S)NN=C(c1ccccc1)c1ccccc1` the survivor count (dose: 6.25 mg/kg/injection, schedule: Q01DX009 (ip), vehicle: saline) was 6 of 6, the survivor count (dose: 12.5 mg/kg/injection, schedule: Q01DX009 (ip), vehicle: saline) was 6 of 6 and the survivor count [11] was 6 of 6. For the same compound, the survivor count [8] was 5 of 6.

In the case of `Oc1ccccc1C=NCCC[N-]CCCN=Cc1ccccc1O.[Co]`, the T/C [11] is reported as 126 % of control, the T/C [8] is reported as 133 and 136 % of control and the T/C [10] is reported as 136 % of control. For the same compound, the survivor count [7] was 5 of 5.

In the case of `O=C(O)C1C2OC(C(Cl)C2Cl)C1C(=O)O` (stereo unspecified), the survivor count (dose: 60.0 mg/kg/injection, schedule: Q01DX005 (ip), vehicle: saline) is reported as 5 of 6 and the survivor count (dose: 240.0 mg/kg/injection, schedule: Q01DX005 (ip), vehicle: saline) is reported as 6 of 6.

In the case of `COc1cc2c(cc1OC)-c1c(oc3c(CCC(C)C)c(O)ccc3c1=O)CO2`, the survivor count (dose: 50.0 mg/kg/injection, schedule: Q01DX005 (ip), vehicle: Klucel (hydroxypropylcellulose) (HPC)) is reported as 6 of 6 and the survivor count [6] is reported as 6 of 6.

`CCCN=Cc1ccccc1O.CCCN=Cc1ccccc1O.[Cu]` was tested, and the survivor count (dose: 120.0 mg/kg/injection, schedule: Q01DX005 (ip), vehicle: Klucel (hydroxypropylcellulose) (HPC)) was 2 of 6 and the survivor count [9] was 0 of 6.

In the case of `O=C[C@@H](CO)O[C@H](C=O)c1c[nH]c(=O)[nH]c1=O`, the T/C (dose: 10.0 mg/kg/injection, schedule: Q01DX005 (ip), vehicle: saline, evaluated on day 30) is reported as 127 % of control, the T/C (dose: 10.0 mg/kg/injection, schedule: Q01DX005 (ip), vehicle: saline, evaluated on day 40) is reported as 127 % of control and the T/C (dose: 20.0 mg/kg/injection, schedule: Q01DX005 (ip), vehicle: saline, evaluated on day 30) is reported as 136 % of control. For the same compound, the T/C (dose: 20.0 mg/kg/injection, schedule: Q01DX005 (ip), vehicle: saline, evaluated on day 40) was 138 % of control, the T/C [12] was 138 % of control and the T/C (dose: 50.0 mg/kg/injection, schedule: Q04DX003 (ip), vehicle: saline) was 146 % of control. For the same compound, the survivor count (dose: 100.0 mg/kg/injection, schedule: Q01DX005 (ip), vehicle: saline) was 5 of 6 and 6 of 6, the survivor count (dose: 160.0 mg/kg/injection, schedule: Q01DX005 (ip), vehicle: saline) was 0 of 6 and the survivor count (dose: 200.0 mg/kg/injection, schedule: Q01DX005 (ip), vehicle: saline) was 0 of 6. The survivor count (dose: 200.0 mg/kg/injection, schedule: Q04DX003 (ip), vehicle: saline) was 3 of 6 and the survivor count (dose: 400.0 mg/kg/injection, schedule: Q01DX005 (ip), vehicle: saline) was 0 of 6.

In the case of `C=CCNCCN1CCN(CCCN2c3ccccc3Sc3ccc(C(F)(F)F)cc32)CC1`, the T/C [12] is reported as 127 % of control and the survivor count (dose: 100.0 mg/kg/injection, schedule: Q04DX003 (ip), vehicle: saline) is reported as 2 of 6 and 4 of 6.

For `NNS(=O)(=O)c1ccccc1`, the survivor count [3] was 0 of 6.
